Experimental findings from PMC5320500 are described below.

The chains behind the UniProt entries cited, without tags or fusion partners.
UniProt Q5D869: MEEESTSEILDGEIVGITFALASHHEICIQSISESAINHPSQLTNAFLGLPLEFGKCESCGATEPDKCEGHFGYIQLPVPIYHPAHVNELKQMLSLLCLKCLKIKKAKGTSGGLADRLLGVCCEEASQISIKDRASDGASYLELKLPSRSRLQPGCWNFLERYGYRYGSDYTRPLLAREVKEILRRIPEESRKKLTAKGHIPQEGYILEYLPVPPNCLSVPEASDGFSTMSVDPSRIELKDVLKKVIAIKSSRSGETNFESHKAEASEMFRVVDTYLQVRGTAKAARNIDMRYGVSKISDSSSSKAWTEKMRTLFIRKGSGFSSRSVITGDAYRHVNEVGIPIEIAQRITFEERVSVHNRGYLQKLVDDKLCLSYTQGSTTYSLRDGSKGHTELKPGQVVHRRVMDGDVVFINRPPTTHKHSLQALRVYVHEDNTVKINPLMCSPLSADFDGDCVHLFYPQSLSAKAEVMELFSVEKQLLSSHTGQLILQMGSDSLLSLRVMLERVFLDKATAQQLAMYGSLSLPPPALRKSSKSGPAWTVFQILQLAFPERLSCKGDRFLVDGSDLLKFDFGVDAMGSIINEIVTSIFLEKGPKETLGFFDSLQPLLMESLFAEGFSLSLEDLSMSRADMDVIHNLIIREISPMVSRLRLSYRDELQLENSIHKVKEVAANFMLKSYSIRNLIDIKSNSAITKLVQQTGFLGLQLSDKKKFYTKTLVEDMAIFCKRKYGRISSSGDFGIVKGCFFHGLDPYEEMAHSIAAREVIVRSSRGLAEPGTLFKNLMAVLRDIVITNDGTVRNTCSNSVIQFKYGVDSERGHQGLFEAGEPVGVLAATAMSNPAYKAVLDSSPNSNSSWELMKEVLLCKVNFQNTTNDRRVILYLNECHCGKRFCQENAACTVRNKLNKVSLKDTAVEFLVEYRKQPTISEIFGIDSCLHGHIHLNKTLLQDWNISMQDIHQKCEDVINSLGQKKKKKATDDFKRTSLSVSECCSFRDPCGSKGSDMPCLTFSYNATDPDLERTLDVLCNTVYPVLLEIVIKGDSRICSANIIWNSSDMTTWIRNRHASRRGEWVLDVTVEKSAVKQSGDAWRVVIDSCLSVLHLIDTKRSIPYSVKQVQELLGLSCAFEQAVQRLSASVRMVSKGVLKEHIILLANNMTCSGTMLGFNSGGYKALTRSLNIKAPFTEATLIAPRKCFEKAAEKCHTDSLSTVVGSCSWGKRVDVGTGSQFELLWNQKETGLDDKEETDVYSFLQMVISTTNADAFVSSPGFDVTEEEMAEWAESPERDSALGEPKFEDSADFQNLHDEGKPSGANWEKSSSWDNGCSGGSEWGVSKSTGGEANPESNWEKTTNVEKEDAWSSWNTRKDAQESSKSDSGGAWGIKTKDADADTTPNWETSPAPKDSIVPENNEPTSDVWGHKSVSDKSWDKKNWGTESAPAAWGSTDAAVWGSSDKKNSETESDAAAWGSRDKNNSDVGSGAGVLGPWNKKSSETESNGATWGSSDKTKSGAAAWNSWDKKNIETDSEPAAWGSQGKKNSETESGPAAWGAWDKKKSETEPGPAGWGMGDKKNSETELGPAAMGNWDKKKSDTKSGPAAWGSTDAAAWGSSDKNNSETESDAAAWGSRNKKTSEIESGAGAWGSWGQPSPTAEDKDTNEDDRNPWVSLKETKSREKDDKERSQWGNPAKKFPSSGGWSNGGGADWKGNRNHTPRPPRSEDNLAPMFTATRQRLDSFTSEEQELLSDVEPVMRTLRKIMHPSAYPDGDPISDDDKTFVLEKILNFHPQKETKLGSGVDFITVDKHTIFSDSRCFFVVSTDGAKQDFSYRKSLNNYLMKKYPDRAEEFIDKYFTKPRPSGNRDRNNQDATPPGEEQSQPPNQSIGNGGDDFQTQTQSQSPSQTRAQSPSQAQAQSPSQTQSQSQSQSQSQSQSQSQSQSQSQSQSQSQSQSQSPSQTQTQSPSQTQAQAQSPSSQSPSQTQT
UniProt Q9FJW0: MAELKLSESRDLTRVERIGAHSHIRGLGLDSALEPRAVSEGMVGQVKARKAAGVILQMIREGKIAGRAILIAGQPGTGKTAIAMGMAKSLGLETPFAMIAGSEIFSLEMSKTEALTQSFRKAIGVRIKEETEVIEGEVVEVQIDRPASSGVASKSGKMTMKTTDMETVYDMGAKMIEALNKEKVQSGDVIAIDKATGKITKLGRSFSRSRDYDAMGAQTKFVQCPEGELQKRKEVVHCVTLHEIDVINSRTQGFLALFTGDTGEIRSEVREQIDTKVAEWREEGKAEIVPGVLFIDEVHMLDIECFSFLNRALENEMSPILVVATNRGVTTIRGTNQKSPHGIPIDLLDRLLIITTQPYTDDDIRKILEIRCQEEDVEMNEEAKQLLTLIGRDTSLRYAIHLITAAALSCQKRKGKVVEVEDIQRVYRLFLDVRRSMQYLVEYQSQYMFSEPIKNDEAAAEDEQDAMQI
UniProt Q9FJ98: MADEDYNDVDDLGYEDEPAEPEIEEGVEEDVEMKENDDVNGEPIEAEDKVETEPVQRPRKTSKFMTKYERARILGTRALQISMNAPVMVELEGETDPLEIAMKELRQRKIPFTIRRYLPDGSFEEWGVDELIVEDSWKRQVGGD
UniProt Q9FMR9: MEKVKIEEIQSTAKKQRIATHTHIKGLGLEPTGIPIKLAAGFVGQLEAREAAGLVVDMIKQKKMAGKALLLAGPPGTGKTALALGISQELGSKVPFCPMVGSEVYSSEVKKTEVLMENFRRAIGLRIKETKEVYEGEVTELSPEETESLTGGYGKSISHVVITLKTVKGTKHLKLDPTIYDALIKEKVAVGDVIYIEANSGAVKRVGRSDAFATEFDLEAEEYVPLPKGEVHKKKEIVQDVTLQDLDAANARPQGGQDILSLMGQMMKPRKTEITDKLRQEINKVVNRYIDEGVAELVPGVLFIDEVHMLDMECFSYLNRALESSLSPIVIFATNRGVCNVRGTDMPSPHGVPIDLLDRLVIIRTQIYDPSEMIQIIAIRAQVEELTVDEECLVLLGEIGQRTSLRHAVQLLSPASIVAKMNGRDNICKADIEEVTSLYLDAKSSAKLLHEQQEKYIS

The target of test [1] is NRPE1-FLAG (largest subunit of nuclear RNA polymerase V) (Arabidopsis thaliana) (UniProt Q5D869). Kind of test: cross-linking; Pol V complex held on dimethylated anti-FLAG beads, washed with 1 M NaCl lysis buffer, cross-linked on the beads with 5 mM BS3 in 30 mM HEPES pH 7.5, 150 mM NaCl, 1 h, room temperature; trypsin (FASP), LC MS/MS, Batch-Tag search.
Test [2] deals with T1, NRPE2 (Arabidopsis thaliana (endogenous in seedlings)) (UniProt Q9LK40).
T1 sequence: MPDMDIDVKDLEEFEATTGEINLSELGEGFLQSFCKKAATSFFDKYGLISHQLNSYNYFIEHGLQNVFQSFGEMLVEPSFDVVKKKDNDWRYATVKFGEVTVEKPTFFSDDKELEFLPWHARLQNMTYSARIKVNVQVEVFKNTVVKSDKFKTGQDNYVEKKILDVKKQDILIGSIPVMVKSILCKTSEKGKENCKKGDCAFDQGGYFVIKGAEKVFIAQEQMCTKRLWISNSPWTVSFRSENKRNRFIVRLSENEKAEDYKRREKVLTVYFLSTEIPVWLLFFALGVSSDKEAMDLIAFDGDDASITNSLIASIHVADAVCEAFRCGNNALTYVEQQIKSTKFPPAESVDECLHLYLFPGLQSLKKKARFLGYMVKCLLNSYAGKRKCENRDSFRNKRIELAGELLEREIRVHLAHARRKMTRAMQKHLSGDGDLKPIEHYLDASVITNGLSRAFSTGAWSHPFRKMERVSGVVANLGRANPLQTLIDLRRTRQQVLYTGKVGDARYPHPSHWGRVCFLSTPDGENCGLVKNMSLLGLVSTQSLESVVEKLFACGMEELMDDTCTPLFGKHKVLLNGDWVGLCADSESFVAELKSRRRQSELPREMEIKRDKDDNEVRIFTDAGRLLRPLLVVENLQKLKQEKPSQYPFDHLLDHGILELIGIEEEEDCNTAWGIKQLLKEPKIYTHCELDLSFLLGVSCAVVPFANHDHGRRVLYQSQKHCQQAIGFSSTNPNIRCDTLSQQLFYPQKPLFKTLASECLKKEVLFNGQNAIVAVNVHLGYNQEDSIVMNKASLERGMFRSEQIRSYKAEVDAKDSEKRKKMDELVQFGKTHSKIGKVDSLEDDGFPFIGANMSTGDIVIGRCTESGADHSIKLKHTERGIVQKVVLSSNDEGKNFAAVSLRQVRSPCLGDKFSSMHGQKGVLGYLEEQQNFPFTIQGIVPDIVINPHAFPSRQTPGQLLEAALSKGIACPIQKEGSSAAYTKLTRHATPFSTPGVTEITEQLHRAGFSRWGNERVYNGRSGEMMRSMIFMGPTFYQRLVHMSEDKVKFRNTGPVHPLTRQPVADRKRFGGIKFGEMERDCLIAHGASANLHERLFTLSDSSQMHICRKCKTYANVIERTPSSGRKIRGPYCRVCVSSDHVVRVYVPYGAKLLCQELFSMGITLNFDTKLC
The description is as above.

Test [3] addresses T1, NRPE2 (Arabidopsis thaliana (endogenous in seedlings)). The experiment in a line: cross-linking; Pol V complex immunopurified on dimethylated anti-FLAG beads, washed with 1 M NaCl lysis buffer, cross-linked on beads with 5 mM BS3 in 30 mM HEPES pH 7.5, 150 mM NaCl, 1 h, room temperature; trypsin (FASP); LC MS/MS, Batch-Tag search for inter-crosslinked peptides.

These are yes or no findings as the source states them, for the method shown. In cells and extracts the contact can be indirect. Some binding calls cover weakened binding; strength is not graded here.

As to “RuvB-like helicase (from UniProt Q9FJW0 1-469)”, the binding entry in test [1] is “binds”.

Regarding NRPE6a (from UniProt Q9FJ98 1-144), the binding entry in test [1] is on record as “binds”.

In the case of “RuvB-like protein 1 (RIN1) (from UniProt Q9FMR9 1-458)”, the binding entry in test [1] is “binds”.

B1: NRPE4 (protein, UniProt Q6DBA5 1-205)
chain: MSEKGGKGLKSSLKSKDGGKDGSSTKLKKGRKIHFDQRTPPANYKILNVSSDQQPFQSSAAKCGKSDKPTKSSKNSLHSFELKDLPENAECMMDCEAFQILDGIKGQLVGLSEDPSIKIPVSYDRALAYVESCVHYTNPQSVRKVLEPLKTYGISDGEMCVIANASSESVDEVLAFIPSLKTKKEVINQPLQDALEELSKLKKSE
For B1, the binding result in test [2] and in test [3] was “binds” throughout.
